The test in a line: qHTS Assay to Find Inhibitors of Chronic Active B-Cell Receptor Signaling. As to conditions: ABC-DLBCL IkBa-CBG/CBR reporter, luminescence ratio (green luciferase fused to IkBa over red control in TMD8 lymphoma cells), 4 h. Put shortly: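 Compounds up to 46 uM were incubated four hours with TMD8 cells whose green CBG68 luciferase is fused to IkappaBalpha; red CBR luminescence normalised the signal, and concentration-effect curves were fitted to fusion, red and ratio data.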
Background: In qHTS, concentration-response curves come from the screen itself.

Setting [1] is: measured here: CBR red luminescence, cell number.
[2] abbreviates: measured here: IkBa-CBG green luminescence.

Some of the results follow. Shown are side measurements of this screen, not its main read-out; they come without a call. The list favours compounds with an active or inconclusive main result. Potencies come from curve fits of mixed quality, noted in brackets.

For orientation: AC50 means the concentration at which the activity in the assay is half-maximal.

Regarding `S=C(NCCCc1ccccc1)Nc1ccccc1Cl`, the AC50 under setting [1] is 25.9 µM [falling, single point]. On to `CC1CCCN(c2ccc3nc4ccccc4c(=O)n3n2)C1` (stereo unspecified), for which, under setting [1], the AC50 was 10 µM [falling, partial curve, poor fit]. For `COc1cccc(NC(=O)CC2SC(=Nc3ccccc3)NC2=O)c1` (stereo unspecified), under setting [1], the AC50 was 2.91 µM [falling, full curve, poor fit].

With `CNS(=O)(=O)c1ccc2c(c1)NC(=O)C1CCCN21` (stereo unspecified), the AC50 under setting [1] was 14.6 µM [rising, partial curve, poor fit]. The same measure, in the same setting: the figure for `O=C(CSc1ccc2c(c1)OCCO2)Nc1cccnc1Cl` is 6.31 µM [falling, partial curve, poor fit]; for `COc1ccc(C(=O)N2CCOCC2)cc1Br` it is 2.06 µM [rising, full curve, poor fit]. Same read-out and setting: the value for `COc1ccc(NC(=S)NC(=O)c2ccccc2)cn1` was 17.8 µM [falling, partial curve]; that for `C=CCN1C(=O)NC(c2ccc(OC)cc2)(C(F)(F)F)S/C1=C(\C#N)c1nnc(N2CCOCC2)n1-c1ccccc1` (stereo unspecified) was 5.17 µM [falling, partial curve]; that for `O=C(NC(=S)Nc1ccccc1C(=O)O)c1cncc(Br)c1` was 17.8 µM [falling, single point]. Take `COC(=O)c1cc(OC)c(OC)cc1NC(=S)Nc1cc(Cl)ccc1OC`: under setting [1], the AC50 is 20.6 µM [falling, single point]. On the same count and under the same terms, the value for `Nc1nc(SCc2nnc(SCC(=O)O)n2-c2ccccc2)nc2sc3c(c12)CCCC3` was 7.31 µM [falling, partial curve, poor fit]; that for `CSc1ccccc1NC(=O)CN(c1ccccc1)S(=O)(=O)N(C)C` was 0.116 µM [rising, full curve, poor fit]; that for `COc1ccccc1NC(=O)c1cc([N+](=O)[O-])ccc1NCCN1C(=O)CCC1=O` was 2.51 µM [rising, full curve]. The same measure, in the same setting: the figure for `O=C(NCc1cccs1)c1cc2c(s1)CCCC2` is 32.6 µM [falling, single point].

With `COc1ccc(CC(=O)NCc2nnc(SCC(=O)Nc3nccs3)n2-c2ccccc2)cc1`, the AC50 under setting [1] was 23.1 µM [falling, partial curve, poor fit]. Regarding `CCOc1ccc(OCc2ccc(C(=O)Nc3ccc(Cl)cn3)o2)cc1`, the AC50 under setting [1] is 16.4 µM [falling, partial curve, poor fit].

In the case of `Cc1ccc(CCN2CC(C(=O)O)CC2=O)cc1` (stereo unspecified), the AC50 under setting [1] was 6.51 µM [rising, single point].

On to `O=C(N/N=C/c1cccnc1)c1cc2ccccc2o1`, for which, under setting [1], the AC50 was 23.1 µM [falling, partial curve, poor fit]. Still for that read-out and setting: the value for `OCCCCNCc1cc(Br)ccc1OCc1ccccc1` was 1 µM [rising, full curve, poor fit]; that for `Cn1cccc1/C=C1\SC(=O)N(c2ccc(O)cc2)C1=O` was 18.4 µM [falling, partial curve]; that for `COc1ccccc1/C=N/Nc1nc(C)cc(C)n1` was 12.6 µM [falling, partial curve, poor fit]. As for `Cc1ccccc1C(=O)Oc1ccc2ccc(O)cc2c1`, under setting [2], the half-maximal activity concentration (AC50) was 12.6 µM [falling, partial curve, poor fit]. The same measure, in the same setting: the value for `CN(/N=C/c1cc(Cl)cc(Cl)c1O)c1c(Cl)cccc1[N+](=O)[O-]` was 14.1 µM [rising, partial curve, poor fit]. `Cc1ccc(N(C(=O)Cc2cccs2)C(C(=O)NC2CCCCC2)c2ccccn2)cc1C` (stereo unspecified): the AC50 under setting [1] is 0.082 µM [falling, full curve, poor fit].

As for `Cn1c(COc2ccccc2)nnc1SCc1nc2ccccc2[nH]1`, the AC50 under setting [1] is 0.58 µM [rising, full curve, poor fit]. Same read-out and setting: the figure for `Cc1ccc(NC(=O)CNc2ccccc2N2CCCC2=O)cc1S(=O)(=O)N1CCOCC1` is 11.6 µM [rising, partial curve]; for `O=C(NCc1ccccn1)c1ccc(Cn2c(=S)[nH]c3ccccc3c2=O)cc1` it is 5.62 µM [rising, single point]; for `O=C(Nc1ccc(F)cc1)C1CCCO1` (stereo unspecified) it is 15.8 µM [falling, single point]. On the same count and under the same terms, the figure for `CCc1c(C(=O)NC2CCCC2)csc1C` is 5.17 µM [rising, single point]; for `Cc1cccc(OCc2nnc(SC(C)C(=O)O)n2Cc2ccccc2)c1` (stereo unspecified) it is 3.98 µM [rising, single point]. Regarding `COC(=O)c1cc2ccccc2c(-c2c(OC)c(C(=O)OC)cc3ccccc23)c1OC`, the AC50 is, setting by setting: under setting [1], 6.31 µM [falling, full curve]; under setting [2], 10 µM [rising, partial curve, poor fit].

For the molecule `CC(=O)c1c(C(C)=O)c(C)n(Cc2ccc(Cl)cc2)c1C`, the concentration at half-maximal activity (AC50) under setting [1] was 13 µM [falling, single point].

Take `Cc1cc(C)cc(S(=O)(=O)c2cnc3ccccc3n2)c1`: under setting [1], the AC50 is 5.62 µM [falling, full curve, poor fit]. In the case of `Cn1nc([N+](=O)[O-])c(C(C#N)c2ccccn2)c(Cl)c1=O` (stereo unspecified), under setting [1], the AC50 is 11.2 µM [falling, partial curve, poor fit]. Still for that read-out and setting: the value for `C/C(N)=C(/C#N)C(=O)COC(=O)c1oc2ccccc2c1COC(C)C` was 20 µM [falling, single point]. Take `CCN(CC)C(=O)CSc1nc(N)c(C#N)c(-c2cccs2)c1C#N`: the concentration at half-maximal activity (AC50) was 1.64 µM [falling, full curve, poor fit] under setting [1] and 2.91 µM [rising, full curve] under setting [2]. In the case of `COc1cc(NC(=O)[C@H](C)NC(=O)N2CCn3c2nc2ccccc23)cc(OC)c1`, the AC50 under setting [1] was 7.08 µM [falling, partial curve]. For `O=C(COC(=O)c1cccc(O)c1)Nc1nnc(-c2ccccc2)o1`, the AC50 under setting [1] is 18.4 µM [falling, single point].

Take `Cc1ccc(/C=N/NC(=O)Cc2c[nH]c3ccccc23)c(C)c1`: under setting [1], the AC50 is 31.6 µM [falling, single point].

On to `CC(=O)Nc1sc(C)c(C)c1CN1CCN(S(=O)(=O)c2ccccc2)CC1`, for which the AC50 under setting [1] is 20.6 µM [falling, partial curve, poor fit]. Same read-out and setting: the figure for `N#Cc1ccsc1NC(=O)CSc1nnc(-c2ccccc2)o1` is 9.2 µM [falling, partial curve]; for `CCCCNS(=O)(=O)c1ccc(NS(=O)(=O)c2c(C)cc(C)cc2C)cc1` it is 18.4 µM [falling, single point].

For `O=c1c2[nH]c3ccc(F)cc3c2ncn1CCC1=CCCCC1`, the AC50 under setting [1] is 0.0891 µM [rising, full curve, poor fit]. On to `CN(Cc1nc2ccccc2c(=O)[nH]1)C(=O)COc1ccccc1Cc1ccccc1`, for which the AC50 under setting [1] was 18.4 µM [falling, partial curve]. Regarding `NC(=O)c1ccsc1NC(=O)c1ccc(S(=O)(=O)N2CCCc3ccccc32)cc1`, under setting [1], the AC50 is 29.1 µM [falling, single point]. On the same count and under the same terms, the figure for `COC(=O)c1c(C)oc2cc(Br)c(OCC(=O)C(C)(C)C)cc12` is 15.8 µM [falling, partial curve, poor fit]; for `CC(=O)Nc1sc(C)c(C)c1C(=O)OCC(=O)N(Cc1ccccc1)C(C)C` it is 0.0731 µM [rising, full curve, poor fit]. `O=c1ncn(-c2ccccc2C(F)(F)F)c2ncccc12`: the AC50 under setting [1] is 4.61 µM [rising, full curve, poor fit]. With `COc1cc(CNc2ccc3[nH]c(=O)[nH]c3c2)ccc1OCc1ccc(C)cc1`, the AC50 under setting [1] is 14.1 µM [rising, partial curve, poor fit]. For `O=C(NC(Cc1c[nH]c2ccccc12)C(=O)O)c1ccc(Br)cc1` (stereo unspecified), the AC50 under setting [1] is 0.631 µM [falling, partial curve, poor fit].

Turning to `Cn1c(CN2CCOCC2)nc2cc(NC(=O)c3ccc(F)cc3)ccc21`, the AC50 under setting [1] was 18.4 µM [falling, partial curve].

For `COC(=O)c1[nH]c2c(c1C)C(=O)CC(c1ccc(OC)c(OC)c1)C2` (stereo unspecified), the AC50 under setting [1] is 6.31 µM [rising, single point]. With `COc1ccc(NC(=O)CCN2C(=O)/C(=C/c3ccc4c(c3)OCO4)SC2=S)cc1`, the AC50 under setting [1] was 20 µM [falling, single point]. On to `CCOC(=O)/C(=C\c1ccc(OC(F)F)cc1)C1=Nn2c(nnc2-c2ccc(Cl)cc2)SC1`, for which the AC50 under setting [1] was 10.3 µM [falling, partial curve]. In the case of `COc1ccc(CC(=O)c2ccc(OC3OC(CO)C(O)C(O)C3O)cc2O)cc1` (stereo unspecified), under setting [1], the AC50 is 3.98 µM [rising, single point]. Still for that read-out and setting: the figure for `COc1cc(OC)cc(C(=O)Nc2ccc(N3CCOCC3)cc2N2CCOCC2)c1` is 29.1 µM [falling, partial curve, poor fit]; for `N#CCc1nc2ccccc2c(=O)[nH]1` it is 35.5 µM [falling, single point]; for `CCOC(=O)c1c(CCl)nc2ccccc2c1-c1ccccc1` it is 3.55 µM [falling, partial curve, poor fit].

Turning to `COc1ccccc1OCCC(=O)OCC(=O)c1[nH]c(C)c(C(C)=O)c1C`, the AC50 under setting [1] was 22.4 µM [falling, single point]. Same read-out and setting: the figure for `COC(C/C=C/C(=O)COCc1ccccc1)OC` is 12.6 µM [falling, partial curve, poor fit]; for `CCOc1cc(CNC2CCCC2)ccc1OCc1ccccc1Cl` it is 25.1 µM [falling, single point]; for `CCOC(=O)[C@H]1[C@H]2COc3ccccc3[C@@H]2N2C(=O)c3cc(F)c(F)cc3NC(=O)[C@@]12C` it is 18.4 µM [falling, single point]. In the case of `O=C(Nc1nc2c(Cl)cccc2s1)C1CC1`, under setting [1], the concentration at half-maximal activity (AC50) is 5.01 µM [falling, partial curve]. On the same count and under the same terms, the value for `CCC(=O)OCCNc1cc(Sc2nc3ccccc3[nH]2)c2nonc2c1[N+](=O)[O-]` was 25.9 µM [falling, single point].

The values above are taken from PubChem BioAssay AID493014 (National Center for Advancing Translational Sciences (NCATS), 2011).
